Results from article doi:10.1101/313882.
Substitutions are numbered along the chain they refer to. Names may count otherwise. Read-outs that look alike come from different tables or passages of the source. These are yes or no findings as the source states them, for the method shown. Some results given as binding are weak or reduced against the parent protein; the word gives no strength. Tags and fused reporters may be left off the sequences shown. Blank lines part the entries; values can stand above or below the binder they belong to.

The chains behind the UniProt entries cited, without tags or fusion partners. Where a name states a change or a piece, a line headed by the entry shows the natural chain unless it says otherwise. Residues count along the entry.
UniProt P05648, 1-82: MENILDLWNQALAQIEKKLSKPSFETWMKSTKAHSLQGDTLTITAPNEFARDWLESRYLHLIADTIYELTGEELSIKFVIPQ

Experiments:
Assay in all cases: two-hybrid
[1] = biological target: T1, full-length DnaB (B. subtilis), two-hybrid fusion (B. subtilis) (UniProt P07908)
T1 sequence: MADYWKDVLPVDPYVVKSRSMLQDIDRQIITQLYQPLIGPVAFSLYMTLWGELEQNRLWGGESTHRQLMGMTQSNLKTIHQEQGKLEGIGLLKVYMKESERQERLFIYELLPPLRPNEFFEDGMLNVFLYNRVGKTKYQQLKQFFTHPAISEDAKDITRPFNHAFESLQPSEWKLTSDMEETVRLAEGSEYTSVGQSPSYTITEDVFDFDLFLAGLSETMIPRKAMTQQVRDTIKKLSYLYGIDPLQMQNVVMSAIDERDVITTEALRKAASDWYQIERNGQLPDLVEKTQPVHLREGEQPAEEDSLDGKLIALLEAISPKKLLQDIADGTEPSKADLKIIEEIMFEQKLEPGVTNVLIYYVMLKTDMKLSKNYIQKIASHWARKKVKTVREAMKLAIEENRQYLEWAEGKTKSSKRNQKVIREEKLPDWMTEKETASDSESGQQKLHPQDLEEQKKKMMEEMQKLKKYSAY

[2] = biological target: T2, DnaB S371P gain-of-function variant (B. subtilis), two-hybrid fusion (B. subtilis) (UniProt P07908)
T2 sequence: T1 sequence with S371P

[3] = biological target: T3, DnaB second C-terminal domain (B. subtilis), two-hybrid fusion (B. subtilis) (UniProt P07908)
T3 sequence: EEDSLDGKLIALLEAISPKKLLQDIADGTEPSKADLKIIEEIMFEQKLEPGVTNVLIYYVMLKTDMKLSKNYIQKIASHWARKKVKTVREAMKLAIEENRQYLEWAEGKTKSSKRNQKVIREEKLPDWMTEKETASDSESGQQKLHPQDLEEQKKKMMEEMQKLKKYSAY

[4] = biological target: T4, DnaB winged helix domain (B. subtilis), two-hybrid fusion (B. subtilis) (UniProt P07908)
T4 sequence: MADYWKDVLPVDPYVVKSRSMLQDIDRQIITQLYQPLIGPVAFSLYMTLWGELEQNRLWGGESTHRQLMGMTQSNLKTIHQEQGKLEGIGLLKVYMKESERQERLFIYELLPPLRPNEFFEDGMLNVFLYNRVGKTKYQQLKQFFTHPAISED

[5] = biological target: T3, DnaB second C-terminal domain (B. subtilis), two-hybrid fusion (B. subtilis); remark: listed apart in the source
[6] = biological target: T4, DnaB winged helix domain (B. subtilis), two-hybrid fusion (B. subtilis); remark: listed apart in the source
[7] = biological target: DnaA domain I (B. subtilis), two-hybrid fusion (B. subtilis) (UniProt P05648)
[8] = biological target: DnaA^DI T26A (B. subtilis), two-hybrid fusion (B. subtilis) (UniProt P05648)

binding [1]: binds
B1: full-length DnaB (B. subtilis), two-hybrid fusion (protein, UniProt P07908 1-472)
chain: T1 sequence

binding [2]: binds
B2: full-length DnaD (B. subtilis), two-hybrid fusion (protein, UniProt P39787 1-232)
chain: MKKQQFIDMQEQGTSTIPNLLLTHYKQLGLNETELILLLKIKMHLEKGSYFPTPNQLQEGMSISVEECTNRLRMFIQKGFLFIEECEDQNGIKFEKYSLQPLWGKLYEYIQLAQNQTQERKAEGEQKSLYTIFEEEFARPLSPLECETLAIWQDQDQHDAQLIKHALKEAVLSGKLSFRYIDRILFEWKKNGLKTVEQAKIHSQKFRRVQAKQNEPQKEYKRQVPFYNWLEQ

binding [3]: binds | binding [4]: binds | binding [1]: binds | binding [5]: binds | binding [6]: binds
B3: DnaD winged helix domain (B. subtilis), two-hybrid fusion (domain or fragment, UniProt P39787 1-128)
chain: MKKQQFIDMQEQGTSTIPNLLLTHYKQLGLNETELILLLKIKMHLEKGSYFPTPNQLQEGMSISVEECTNRLRMFIQKGFLFIEECEDQNGIKFEKYSLQPLWGKLYEYIQLAQNQTQERKAEGEQKS

binding [1]: binds
B4: DnaD^WHD I83A (B. subtilis), two-hybrid fusion (domain or fragment, UniProt P39787 1-128)
chain: B3 chain with I83A

binding [1]: binds
B5: DnaD^WHD F51A (B. subtilis), two-hybrid fusion (domain or fragment, UniProt P39787 1-128)
chain: B3 chain with F51A

binding [5]: binds | binding [6]: binds
B6: DnaD^WHD ΔNT variant (B. subtilis), two-hybrid fusion (domain or fragment, UniProt P39787 19-128)
chain: NLLLTHYKQLGLNETELILLLKIKMHLEKGSYFPTPNQLQEGMSISVEECTNRLRMFIQKGFLFIEECEDQNGIKFEKYSLQPLWGKLYEYIQLAQNQTQERKAEGEQKS

binding [7]: binds | binding [8]: binds
B7: full-length SirA (B. subtilis), two-hybrid fusion (protein, UniProt P45707 1-148)
chain: MERHYYTYLIKEEFANHYFGRESVMFELFQDYHWTSLEKQQYEMTEKQIQYITQPIPILHMHQRLKMNLNKTDYRQLDYIYRIALPKAKGHATFMMKEHMIEIVASGDYEAETIFFEVLRKVSPCFLAMDFNSKRYGWLNPVKERNFV
